Record: PubChem BioAssay AID652243 (Drosophila RNAi Screening Center, 2013)
The screen tested about 24,000 reagents; this is a random part of those that have a named target and a result. In the full data, 246 (1%) were called active. 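Plates not normalised; calls are printed but the firefly/Renilla ratio behind them is not deposited; fold cut for lowering reported inconsistently.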 Raw values are not corrected between plates. Entries without a mark were called inactive. No sequences are given here. Not given: the amount of reagent.

Screen: 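Knock-downs that decrease or increase androgen receptor reporter signal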 (primary screen)
System: Drosophila S2R+ cells
Reagent: long dsRNA against Drosophila genes
Timing: 72 h (48 h, then 24 h hormone)
Challenge: synthetic androgen R1881 at 10 nM for 24 h
Measurement: 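Firefly light from an androgen-responsive reporter and Renilla control light per well, raw and unnormalised, for each of two replicates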
Scale: firefly reporter light: higher = more light from androgen-responsive reporter; Renilla control light: higher = more constitutive control signal (cell number, transfection)
Active means: 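Hit when the log firefly-to-Renilla ratio dropped or increased by a fixed fold versus the mean of GFP or LacZ controls across duplicate plates; lowering cut given as 1.5 and as 3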
Meaning of the calls: active = hit: reporter lowered or raised; inactive = no hit

Gr58b (GeneID 37502) [DRSC04140]
- firefly reporter light, replicate 1: 2.73e5
- firefly reporter light, replicate 2: 2.85e5
- Renilla control light, replicate 1: 1.78e6
- Renilla control light, replicate 2: 1.26e6

Non2 (GeneID 38341) [DRSC08272]
- firefly reporter light, replicate 1: 4.17e5
- firefly reporter light, replicate 2: 5.97e5
- Renilla control light, replicate 1: 5.90e5
- Renilla control light, replicate 2: 9.49e5

Non2 (GeneID 38341) [DRSC25342]
- firefly reporter light, replicate 1: 1.03e6
- firefly reporter light, replicate 2: 1.06e6
- Renilla control light, replicate 1: 1.03e6
- Renilla control light, replicate 2: 8.78e5

Uxs (GeneID 38911) [DRSC10941]
- firefly reporter light, replicate 1: 5.02e5
- firefly reporter light, replicate 2: 5.75e5
- Renilla control light, replicate 1: 7.53e5
- Renilla control light, replicate 2: 8.90e5

Uxs (GeneID 38911) [DRSC28512]
- firefly reporter light, replicate 1: 2.42e5
- firefly reporter light, replicate 2: 3.66e5
- Renilla control light, replicate 1: 3.73e5
- Renilla control light, replicate 2: 6.63e5

Continued; the last 2 above are carried over.
Uxs (GeneID 38911) [DRSC10941]
- firefly reporter light, replicate 1: 5.02e5
- firefly reporter light, replicate 2: 5.75e5
- Renilla control light, replicate 1: 7.53e5
- Renilla control light, replicate 2: 8.90e5

Uxs (GeneID 38911) [DRSC28512]
- firefly reporter light, replicate 1: 2.42e5
- firefly reporter light, replicate 2: 3.66e5
- Renilla control light, replicate 1: 3.73e5
- Renilla control light, replicate 2: 6.63e5

CG3649 (GeneID 37626) [DRSC04400]
- firefly reporter light, replicate 1: 4.62e5
- firefly reporter light, replicate 2: 3.90e5
- Renilla control light, replicate 1: 2.82e6
- Renilla control light, replicate 2: 2.34e6

CG3649 (GeneID 37626) [DRSC28728]
- firefly reporter light, replicate 1: 3.82e5
- firefly reporter light, replicate 2: 4.15e5
- Renilla control light, replicate 1: 6.04e5
- Renilla control light, replicate 2: 9.02e5

Tsf1 (GeneID 32821) [DRSC20296]
- firefly reporter light, replicate 1: 6.72e5
- firefly reporter light, replicate 2: 5.69e5
- Renilla control light, replicate 1: 3.91e6
- Renilla control light, replicate 2: 3.65e6

Tsf1 (GeneID 32821) [DRSC28246]
- firefly reporter light, replicate 1: 3.06e5
- firefly reporter light, replicate 2: 5.86e5
- Renilla control light, replicate 1: 7.23e5
- Renilla control light, replicate 2: 1.67e6

CG33128 (GeneID 326263) [DRSC00294]
- firefly reporter light, replicate 1: 4.35e5
- firefly reporter light, replicate 2: 6.71e5
- Renilla control light, replicate 1: 1.33e6
- Renilla control light, replicate 2: 2.00e6

CG33128 (GeneID 326263) [DRSC28698]
- firefly reporter light, replicate 1: 3.60e5
- firefly reporter light, replicate 2: 3.32e5
- Renilla control light, replicate 1: 1.17e6
- Renilla control light, replicate 2: 1.34e6

CG34183 (GeneID 5740752) [DRSC38922]
- firefly reporter light, replicate 1: 7.26e5
- firefly reporter light, replicate 2: 7.28e5
- Renilla control light, replicate 1: 2.08e6
- Renilla control light, replicate 2: 1.80e6
